Not every detail of the peptide structures is certain; ends, links or a residue may be inferred. Residues, ends and D or L forms follow the SMILES beside them.
Assay: Aggregation over time, SHG image time series in aqueous solution
Assay type: physicochemical
Conditions: uncoated, deionized water with 1% Pluronic surfactants, 0 to 40 minutes

With `N[C@@H](Cc1ccccc1)C(=O)N[C@@H](Cc1ccccc1)C(=O)N[C@@H](Cc1ccccc1)C(=O)O` [triphenylalanine, Phe-Phe-Phe] (H-Phe-Phe-Phe-OH; N-terminus and C-terminus assumed) the aggregation over time was “aggregation over time”.

Reference: patent US20250332293A1, “METHOD FOR MANUFACTURING BIOCOMPATIBLE NANOPARTICLES WITH A PEPTIDE CORE EXHIBITING SECOND- AND THIRD-HARMONIC SIGNAL GENERATION” (MAX-PLANCK-GESELLSCHAFT ZUR FÖRDERUNG DER WISSENSCHAFTEN E. …, priority 2016, published 2025)
